Experimental findings from article PMC6550527, “Evolution of Superinfection Immunity in Cluster A Mycobacteriophages” are described below.

For at least one entry, the source does not settle the construct or the ends of the probe. Weaker means in comparison with the reference protein, sequence or condition of that experiment. At least one verdict was read from the data and is not stated in words by the source. Where a protein sequence is shown, tags need not be part of it.

This series addresses T1, RepTrixie immunity repressor (Mycobacteriophage Trixie) (UniProt G1JV33).
T1 sequence (looked up, limits assumed): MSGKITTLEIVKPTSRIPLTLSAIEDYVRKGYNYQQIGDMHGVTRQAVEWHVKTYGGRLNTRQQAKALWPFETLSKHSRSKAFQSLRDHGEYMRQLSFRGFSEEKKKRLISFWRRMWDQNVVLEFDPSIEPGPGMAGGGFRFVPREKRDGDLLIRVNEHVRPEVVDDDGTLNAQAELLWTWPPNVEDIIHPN
As to the kind of experiment: EMSA. Particulars: Kd only in figure, EMSA on 8% polyacrylamide gel, serially diluted Rep with 5'-32P 30-bp dsDNA, binding buffer and temperature not given (ref. 54), protein storage buffer 50 mM Tris pH 8.0, recombinant protein, protein details: C-terminal His6 with linker (KLAAALEHHHHHH), label: 5' 32P. (In general: Mobility shift assays separate free from complexed probe on a gel.)

With “TGATCGCAACTTGACACCCACCGTGAGGGG (double strand) [Gladiator stoperator 30-bp]”, the binding result is given as “binds more weakly”.

For “TGAGCAGTACTTGACATCGCACAGGTTGGG (double strand) [Trixie C9G10C11A12 (Peaches site)]”, the binding result (end of progressive loss series) is “binds more weakly”.

“TGACCTTGACTTGACATCGCACACTGGGAG (double strand) [Rockstar stoperator 30-bp]”: the binding result (very low affinity) was “binds more weakly”.

Take “TAGTTCCAACTTGACACTCATCAGTGAGGG (double strand) [Alma stoperator 30-bp]”: the binding result (very low affinity) is on record as “binds more weakly”.

Take “TGAGCCTGACTTGACATCGCACGGCGGGGG (double strand) [Peaches stoperator 30-bp]”: for the setting “very low affinity”, the binding result is reported as “binds more weakly”.
